These are yes or no findings as the source states them, for the method shown. In cells and extracts the contact can be indirect.
Tests used:
[1] = target: E-cadherin (human (endogenous in MCF7 and HEK293T)); assay: co-IP; lysates of HEK293T cells transiently transfected or not with a FLAG-Syk plasmid; ≈700 μg lysate with 2 μg antibody, protein-A/G Sepharose beads, 4 °C, 3 h; Western blot
[2] = target: E-cadherin (human (endogenous in MCF7 and HEK293T)); assay: co-IP; lysates of parental (nontransfected) and GFP-Syk-expressing MCF7 cells; ≈700 μg lysate with 2 μg antibody, protein-A/G Sepharose beads, 4 °C, 3 h; Western blot

B1: Hakai E3 ubiquitin-ligase (protein, UniProt Q75N03 1-491)
chain: MDHTDNELQGTNSSGSLGGLDVRRRIPIKLISKQANKAKPAPRTQRTINRMPAKAPPGDEEGFDYNEEERYDCKGGELFANQRRFPGHLFWDFQINILGEKDDTPVHFCDKCGLPIKIYGRMIPCKHVFCYDCAILHEKKGDKMCPGCSDPVQRIEQCTRGSLFMCSIVQGCKRTYLSQRDLQAHINHRHMRAGKPVTRASLENVHPPIAPPPTEIPERFIMPPDKHHMSHIPPKQHIMMPPPPLQHVPHEHYNQPHEDIRAPPAELSMAPPPPRSVSQETFRISTRKHSNLITVPIQDDSNSGAREPPPPAPAPAHHHPEYQGQPVVSHPHHIMPPQQHYAPPPPPPPPISHPMPHPPQAAGTPHLVYSQAPPPPMTSAPPPITPPPGHIIAQMPPYMNHPPPGPPPPQHGGPPVTAPPPHHYNPNSLPQFTEDQGTLSPPFTQPGGMSPGIWPAPRGPPPPPRLQGPPSQTPLPGPHHPDQTRYRPYYQ
In the case of B1, the binding [1] is reported as “no binding” and the binding [2] is reported as “no binding”.
